This is one part of the list. Small differences around the control level are noise.

Sequences of proteins named here, by UniProt entry; tags and fusion partners are left off. A change or cut given only in a name is not applied to a line headed by its entry.
UniProt P11171, whole entry: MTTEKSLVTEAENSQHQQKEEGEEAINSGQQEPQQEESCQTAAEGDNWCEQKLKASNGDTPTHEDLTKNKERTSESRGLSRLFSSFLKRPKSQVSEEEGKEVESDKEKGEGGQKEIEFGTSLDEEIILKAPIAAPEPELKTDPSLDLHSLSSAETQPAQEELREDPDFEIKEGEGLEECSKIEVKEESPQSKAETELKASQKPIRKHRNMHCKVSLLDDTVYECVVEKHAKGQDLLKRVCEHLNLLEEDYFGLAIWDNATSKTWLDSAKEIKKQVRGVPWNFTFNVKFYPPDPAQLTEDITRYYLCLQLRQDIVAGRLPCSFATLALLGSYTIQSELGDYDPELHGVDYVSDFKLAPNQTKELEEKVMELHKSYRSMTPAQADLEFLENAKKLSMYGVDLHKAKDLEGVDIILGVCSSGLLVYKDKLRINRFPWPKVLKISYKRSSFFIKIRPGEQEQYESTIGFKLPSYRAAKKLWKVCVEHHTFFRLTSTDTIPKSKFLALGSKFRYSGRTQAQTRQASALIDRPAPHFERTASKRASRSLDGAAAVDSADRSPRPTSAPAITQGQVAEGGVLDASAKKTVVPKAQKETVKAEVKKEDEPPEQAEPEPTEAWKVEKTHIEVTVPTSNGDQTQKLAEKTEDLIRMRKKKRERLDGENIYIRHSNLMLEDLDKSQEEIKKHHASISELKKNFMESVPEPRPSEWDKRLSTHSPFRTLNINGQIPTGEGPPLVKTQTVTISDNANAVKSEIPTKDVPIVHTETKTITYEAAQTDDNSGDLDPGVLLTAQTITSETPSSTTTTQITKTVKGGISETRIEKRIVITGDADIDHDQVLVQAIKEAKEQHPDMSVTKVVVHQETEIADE
UniProt P09234, whole entry: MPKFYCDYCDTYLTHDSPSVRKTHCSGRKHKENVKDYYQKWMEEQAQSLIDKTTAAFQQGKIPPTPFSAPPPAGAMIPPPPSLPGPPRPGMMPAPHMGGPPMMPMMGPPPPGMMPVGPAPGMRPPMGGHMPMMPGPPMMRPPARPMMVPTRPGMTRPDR
UniProt P10412, whole entry: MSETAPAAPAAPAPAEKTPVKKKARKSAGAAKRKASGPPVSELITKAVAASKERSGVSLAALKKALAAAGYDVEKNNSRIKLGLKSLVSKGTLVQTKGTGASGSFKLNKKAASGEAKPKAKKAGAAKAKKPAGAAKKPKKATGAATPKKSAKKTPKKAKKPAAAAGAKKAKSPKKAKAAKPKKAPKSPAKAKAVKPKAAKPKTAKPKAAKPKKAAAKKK
UniProt P12081: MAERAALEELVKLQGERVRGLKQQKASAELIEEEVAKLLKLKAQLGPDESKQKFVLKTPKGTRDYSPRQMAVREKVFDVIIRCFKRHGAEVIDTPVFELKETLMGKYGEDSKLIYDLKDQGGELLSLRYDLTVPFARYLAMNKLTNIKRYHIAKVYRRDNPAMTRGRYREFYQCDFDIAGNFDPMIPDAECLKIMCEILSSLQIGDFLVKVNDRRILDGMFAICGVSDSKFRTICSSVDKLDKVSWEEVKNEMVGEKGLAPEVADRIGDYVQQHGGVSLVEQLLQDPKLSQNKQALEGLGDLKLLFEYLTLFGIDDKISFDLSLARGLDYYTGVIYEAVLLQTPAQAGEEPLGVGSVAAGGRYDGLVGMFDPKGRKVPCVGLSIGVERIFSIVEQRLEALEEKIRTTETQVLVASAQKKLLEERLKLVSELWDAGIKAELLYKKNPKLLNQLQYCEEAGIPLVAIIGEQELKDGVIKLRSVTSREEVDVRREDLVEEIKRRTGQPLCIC
UniProt P05166: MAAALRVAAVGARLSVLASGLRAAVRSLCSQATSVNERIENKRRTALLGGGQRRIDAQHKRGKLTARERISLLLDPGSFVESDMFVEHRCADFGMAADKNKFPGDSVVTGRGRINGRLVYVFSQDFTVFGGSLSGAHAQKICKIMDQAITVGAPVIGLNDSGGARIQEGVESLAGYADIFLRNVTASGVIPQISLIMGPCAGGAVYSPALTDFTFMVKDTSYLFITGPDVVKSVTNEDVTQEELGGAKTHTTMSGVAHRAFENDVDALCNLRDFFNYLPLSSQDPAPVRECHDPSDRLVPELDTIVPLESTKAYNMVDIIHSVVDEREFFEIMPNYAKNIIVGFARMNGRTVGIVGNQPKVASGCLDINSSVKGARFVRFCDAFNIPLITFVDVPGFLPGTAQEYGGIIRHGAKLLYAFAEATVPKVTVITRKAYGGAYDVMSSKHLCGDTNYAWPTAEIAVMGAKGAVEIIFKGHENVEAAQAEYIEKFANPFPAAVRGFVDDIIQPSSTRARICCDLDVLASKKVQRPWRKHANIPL
UniProt P0DTW1: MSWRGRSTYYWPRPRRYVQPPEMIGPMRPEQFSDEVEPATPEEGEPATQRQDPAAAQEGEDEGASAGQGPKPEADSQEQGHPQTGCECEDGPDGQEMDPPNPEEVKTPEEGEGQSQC
UniProt P06733, whole entry: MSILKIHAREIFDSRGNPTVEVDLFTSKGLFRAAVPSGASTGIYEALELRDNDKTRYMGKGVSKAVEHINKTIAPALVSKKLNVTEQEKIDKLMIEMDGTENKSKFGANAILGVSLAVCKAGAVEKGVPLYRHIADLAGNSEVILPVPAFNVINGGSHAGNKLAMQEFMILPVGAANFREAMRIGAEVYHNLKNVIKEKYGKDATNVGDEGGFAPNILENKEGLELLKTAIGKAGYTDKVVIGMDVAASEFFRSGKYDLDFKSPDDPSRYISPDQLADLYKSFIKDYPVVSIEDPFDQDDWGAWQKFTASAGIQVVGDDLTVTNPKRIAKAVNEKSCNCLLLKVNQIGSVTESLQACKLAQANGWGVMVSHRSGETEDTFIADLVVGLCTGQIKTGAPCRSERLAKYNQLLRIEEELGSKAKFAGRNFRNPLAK
UniProt P10606, whole entry: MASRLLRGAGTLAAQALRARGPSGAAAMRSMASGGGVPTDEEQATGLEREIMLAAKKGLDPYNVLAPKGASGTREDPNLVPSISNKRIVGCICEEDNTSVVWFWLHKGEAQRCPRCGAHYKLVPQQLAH
UniProt P0C7T5: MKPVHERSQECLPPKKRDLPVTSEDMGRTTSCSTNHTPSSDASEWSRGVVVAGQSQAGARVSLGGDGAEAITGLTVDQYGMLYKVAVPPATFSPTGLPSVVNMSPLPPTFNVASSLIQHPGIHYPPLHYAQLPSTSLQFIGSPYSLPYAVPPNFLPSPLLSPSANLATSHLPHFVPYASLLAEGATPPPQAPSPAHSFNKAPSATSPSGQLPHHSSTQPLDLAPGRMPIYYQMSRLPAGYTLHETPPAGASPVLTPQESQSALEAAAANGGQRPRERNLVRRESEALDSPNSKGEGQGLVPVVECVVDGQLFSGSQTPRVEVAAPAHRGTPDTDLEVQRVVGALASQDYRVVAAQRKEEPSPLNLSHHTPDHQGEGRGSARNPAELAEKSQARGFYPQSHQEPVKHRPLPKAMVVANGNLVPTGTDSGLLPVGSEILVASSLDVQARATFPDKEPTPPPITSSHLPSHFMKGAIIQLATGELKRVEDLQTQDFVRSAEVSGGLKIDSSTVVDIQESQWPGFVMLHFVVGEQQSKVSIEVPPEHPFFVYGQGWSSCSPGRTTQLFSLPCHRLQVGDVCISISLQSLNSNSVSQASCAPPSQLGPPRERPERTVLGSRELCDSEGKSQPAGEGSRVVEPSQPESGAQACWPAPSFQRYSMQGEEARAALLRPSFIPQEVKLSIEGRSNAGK
UniProt P08236: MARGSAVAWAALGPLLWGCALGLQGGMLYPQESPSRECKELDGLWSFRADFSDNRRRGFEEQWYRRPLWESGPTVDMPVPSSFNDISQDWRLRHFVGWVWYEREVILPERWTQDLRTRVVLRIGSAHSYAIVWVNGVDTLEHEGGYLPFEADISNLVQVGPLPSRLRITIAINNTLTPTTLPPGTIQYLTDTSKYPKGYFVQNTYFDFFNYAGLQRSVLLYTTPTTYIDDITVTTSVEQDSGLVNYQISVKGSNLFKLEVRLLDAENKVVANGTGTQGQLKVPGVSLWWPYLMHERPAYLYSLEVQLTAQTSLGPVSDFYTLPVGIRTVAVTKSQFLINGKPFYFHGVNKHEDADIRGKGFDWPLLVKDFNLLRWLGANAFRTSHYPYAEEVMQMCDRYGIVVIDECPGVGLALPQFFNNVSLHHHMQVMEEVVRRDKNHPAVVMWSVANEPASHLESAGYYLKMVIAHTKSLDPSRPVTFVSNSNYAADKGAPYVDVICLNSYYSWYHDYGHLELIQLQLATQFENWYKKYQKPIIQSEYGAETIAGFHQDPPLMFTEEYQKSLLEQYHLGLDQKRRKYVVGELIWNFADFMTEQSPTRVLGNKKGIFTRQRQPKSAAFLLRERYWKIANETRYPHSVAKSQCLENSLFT
UniProt P10515, whole entry: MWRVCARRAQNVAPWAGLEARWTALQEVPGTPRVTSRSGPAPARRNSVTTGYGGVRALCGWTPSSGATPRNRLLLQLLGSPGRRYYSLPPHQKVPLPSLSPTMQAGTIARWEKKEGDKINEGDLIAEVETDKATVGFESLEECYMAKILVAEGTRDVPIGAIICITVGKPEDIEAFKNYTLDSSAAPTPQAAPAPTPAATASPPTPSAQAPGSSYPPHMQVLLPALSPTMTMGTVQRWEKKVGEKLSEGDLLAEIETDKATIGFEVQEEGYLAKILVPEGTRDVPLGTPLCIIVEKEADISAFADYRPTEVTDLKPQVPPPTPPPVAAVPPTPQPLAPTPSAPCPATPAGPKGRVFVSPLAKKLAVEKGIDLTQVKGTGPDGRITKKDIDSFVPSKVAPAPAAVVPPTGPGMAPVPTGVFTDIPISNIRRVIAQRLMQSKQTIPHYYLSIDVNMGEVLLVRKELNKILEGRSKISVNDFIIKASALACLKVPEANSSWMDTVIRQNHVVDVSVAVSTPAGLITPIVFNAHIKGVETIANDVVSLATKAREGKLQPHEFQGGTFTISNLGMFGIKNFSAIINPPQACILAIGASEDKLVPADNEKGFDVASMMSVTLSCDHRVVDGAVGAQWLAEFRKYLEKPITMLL
UniProt P09661: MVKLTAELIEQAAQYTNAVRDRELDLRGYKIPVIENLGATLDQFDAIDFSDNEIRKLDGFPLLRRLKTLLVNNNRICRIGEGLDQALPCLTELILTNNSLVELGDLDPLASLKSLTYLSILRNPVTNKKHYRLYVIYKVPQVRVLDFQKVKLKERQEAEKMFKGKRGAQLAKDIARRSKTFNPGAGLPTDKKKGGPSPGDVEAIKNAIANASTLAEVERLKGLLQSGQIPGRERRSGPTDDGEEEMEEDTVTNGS
UniProt P09651: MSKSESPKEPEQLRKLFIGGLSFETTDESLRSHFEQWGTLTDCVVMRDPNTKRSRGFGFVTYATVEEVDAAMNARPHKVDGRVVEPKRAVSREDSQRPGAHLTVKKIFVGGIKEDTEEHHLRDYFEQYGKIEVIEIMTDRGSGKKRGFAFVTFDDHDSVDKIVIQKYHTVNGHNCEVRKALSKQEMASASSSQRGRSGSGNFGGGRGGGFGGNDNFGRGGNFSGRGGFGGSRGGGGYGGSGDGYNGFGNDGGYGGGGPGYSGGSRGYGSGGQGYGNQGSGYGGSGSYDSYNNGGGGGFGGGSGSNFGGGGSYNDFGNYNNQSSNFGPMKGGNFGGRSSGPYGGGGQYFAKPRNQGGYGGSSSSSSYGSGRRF
UniProt P09874, whole entry: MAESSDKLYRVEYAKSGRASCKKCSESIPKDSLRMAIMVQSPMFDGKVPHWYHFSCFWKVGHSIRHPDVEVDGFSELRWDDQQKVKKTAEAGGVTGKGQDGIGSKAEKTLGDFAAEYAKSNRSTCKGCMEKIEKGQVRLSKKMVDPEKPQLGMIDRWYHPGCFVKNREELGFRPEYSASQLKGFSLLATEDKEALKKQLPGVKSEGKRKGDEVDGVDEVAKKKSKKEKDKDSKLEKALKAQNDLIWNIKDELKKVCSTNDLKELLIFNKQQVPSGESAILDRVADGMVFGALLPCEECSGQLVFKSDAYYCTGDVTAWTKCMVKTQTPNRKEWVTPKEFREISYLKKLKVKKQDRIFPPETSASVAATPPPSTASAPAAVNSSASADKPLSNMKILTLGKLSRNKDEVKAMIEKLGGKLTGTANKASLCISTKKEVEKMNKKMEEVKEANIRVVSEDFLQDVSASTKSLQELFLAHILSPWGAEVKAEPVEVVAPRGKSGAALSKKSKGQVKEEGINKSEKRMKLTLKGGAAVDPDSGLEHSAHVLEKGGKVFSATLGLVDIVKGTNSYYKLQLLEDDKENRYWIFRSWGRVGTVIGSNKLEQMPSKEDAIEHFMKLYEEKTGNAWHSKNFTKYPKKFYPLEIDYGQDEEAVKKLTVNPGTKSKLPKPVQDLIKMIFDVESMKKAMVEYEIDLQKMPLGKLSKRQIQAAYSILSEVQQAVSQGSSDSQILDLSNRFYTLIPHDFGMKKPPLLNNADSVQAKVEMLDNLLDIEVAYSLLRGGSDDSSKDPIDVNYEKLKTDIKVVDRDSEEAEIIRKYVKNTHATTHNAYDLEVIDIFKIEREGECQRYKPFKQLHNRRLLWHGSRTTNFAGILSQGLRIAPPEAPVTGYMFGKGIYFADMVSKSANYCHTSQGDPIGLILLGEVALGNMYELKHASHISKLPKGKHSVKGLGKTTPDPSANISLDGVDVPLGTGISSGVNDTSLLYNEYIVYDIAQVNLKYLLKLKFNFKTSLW

Compound in the assay: Cc1nc(Nc2ncc(C(=O)Nc3c(C)cccc3Cl)s2)cc(N2CCN(CCO)CC2)n1 [dasatinib]
Nature of the assay: log2 fold change of tryptic peptide abundance, ligand vs vehicle (limited proteolysis) (log2 ratio); higher = more trypsin-susceptible (destabilized). The settings on record: ligand concentration: 5 uM; sample: K562 cleared lysate.
Consider “UniProt P11137 (peptide sequence: SLGLGGR, peptide start residue: 686)”, for which the log2 fold change is 0.363.
To “EPB41 (peptide sequence: EGEGLEECSKIEVK, peptide start residue: 172) (UniProt P11171)” belongs 0.338; to “SNRPC (peptide sequence: KHKENVK, peptide start residue: 29) (UniProt P09234)”, -0.443; to “GAPDH (peptide sequence: AGAHLQGGAKR, peptide start residue: 108) (UniProt P04406)”, -0.384.
Turning to “SERPINC1 (peptide sequence: ATEDEGSEQKIPEATNR, peptide start residue: 62) (UniProt P01008)”, the log2 fold change is 0.342.
To “HIST1H1E (peptide sequence: KAASGEAKPK, peptide start residue: 110) (UniProt P10412)” belongs -0.0641.
Turning to “HARS (peptide sequence: VFDVIIR, peptide start residue: 76) (UniProt P12081)”, the log2 fold change is -0.269.
To “PCCB (peptide sequence: ICCDLDVLASK, peptide start residue: 515) (UniProt P05166)” belongs 0.257.
With “PRKAR1A (peptide sequence: ILMGSTLR, peptide start residue: 234) (UniProt P10644)”, the log2 fold change is -0.121.
Take “COX4I1 (peptide sequence: SEDFSLPAYMDRR, peptide start residue: 30) (UniProt P13073)”: the log2 fold change amounted to 0.0807.
With “UniProt P0DJD0 (peptide sequence: SADQLNGLLR, peptide start residue: 1657)”, the log2 fold change was -0.283.
To “UniProt P04350 (peptide sequence: GLKMAATFIGNSTAIQELFKR, peptide start residue: 360)” belongs -0.457; to “UniProt P13682 (peptide sequence: SHTGEKPYECK, peptide start residue: 216)”, 0.169; to “UniProt P0DTW1 (peptide sequence: TPEEGEGQSQC, peptide start residue: 107)”, 0.0866.
Then “ENO1 (peptide sequence: TIAPALVSK, peptide start residue: 72) (UniProt P06733)”, with 0.0836.
Consider “POLA1 (peptide sequence: KLAVTKPNNIK, peptide start residue: 125) (UniProt P09884)”, for which the log2 fold change is -0.579.
Then “COX5B (peptide sequence: KGLDPYNVLAPK, peptide start residue: 57) (UniProt P10606)”, with 0.227; and “GFAP (peptide sequence: GTNESLER, peptide start residue: 335) (UniProt P14136)”, with -0.0249; and “QDPR (peptide sequence: NRPSSGSLIQVVTTEGR, peptide start residue: 220) (UniProt P09417)”, with -0.324.
Then “ATXN1L (peptide sequence: MKPVHER, peptide start residue: 1) (UniProt P0C7T5)”, with -0.278.
To “GUSB (peptide sequence: WLGANAFR, peptide start residue: 375) (UniProt P08236)” belongs -0.11; to “SLC2A1 (peptide sequence: TFDEIASGFR, peptide start residue: 459) (UniProt P11166)”, -0.0599.
As for “DLAT (peptide sequence: KDIDSFVPSK, peptide start residue: 387) (UniProt P10515)”, the log2 fold change is -0.303.
To “SNRPA1 (peptide sequence: SLTYLSILR, peptide start residue: 114) (UniProt P09661)” belongs -0.325; to “PRPS2 (peptide sequence: PNIVLFSGSSHQDLSQR, peptide start residue: 2) (UniProt P11908)”, 0.0394; to “HNRNPA1 (peptide sequence: SESPKEPEQLR, peptide start residue: 4) (UniProt P09651)”, 0.131.
To “PARP1 (peptide sequence: KMVDPEKPQLGMIDR, peptide start residue: 142) (UniProt P09874)” belongs -0.742; to “PTMA (peptide sequence: AAEDDEDDDVDTKKQK, peptide start residue: 91) (UniProt P06454)”, -0.0639; to “ALDH2 (peptide sequence: ILGYINTGK, peptide start residue: 370) (UniProt P05091)”, 0.193.

Source of the values: the supplement of paper PMC12819154, “High-throughput peptide-centric local stability assay extends protein–ligand identification to membrane proteins, tissues and bacteria” (Nature Structural & Molecular Biology, 2025).
